This test relates to Salmonella enterica serovar Typhimurium SL1344. As to the kind of experiment: bacterial growth OD600 after 18 h with compound and polymyxin B; higher = more bacterial growth (less inhibition). As to conditions: 50 µM, Mueller-Hinton broth.

The other results are listed elsewhere or left out. Values are raw readings; no control value is given beside them.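 Primary screen: polymyxin B was added at a level permeabilizing Salmonella outer membranes while sparing inner membranes. DMSO wells, both with and without polymyxin B, established maximum growth. Plate-to-plate variation meant each plate was ranked on its own, and the lowest-OD600 compounds were selected as hits.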

On to `COc1ccc(CNC2Cc3ccccc3C2)c(OCC(O)CN2CCCC2)c1` (stereo unspecified), for which, where the note is “polymyxin B 1 µg/mL”, the “bacterial growth OD600” value is 1.07. For the compound `CC(C)Cc1cn[nH]c1C1CCCN(Cc2cnn(-c3ccc(F)cc3)c2)C1` (stereo unspecified), under “polymyxin B 0.75 µg/mL”, the “bacterial growth OD600” value came out at 0.847.

As for `COc1ccc2c(c1)-c1nc(-n3ncc(C(=O)N4CCN(C5CCCC5)CC4)c3C3CC3)ncc1CC2`, the “bacterial growth OD600” value (polymyxin B 0.75 µg/mL) was 0.778. `c1ccc(NC2CCCN(Cc3cc4ccccc4o3)C2)cc1` (stereo unspecified): the “bacterial growth OD600” value (polymyxin B 1 µg/mL) amounted to 1.13. As to `COc1ccc(-c2cn3c(C(=O)NCCC(C)C)csc3n2)cc1F`, for the setting “polymyxin B 1 µg/mL”, the “bacterial growth OD600” value was 1.14.

Take `CCN1CCN(c2ccc(C(=O)NCCCn3ccnc3C(C)C)cn2)CC1`: for the setting “polymyxin B 1 µg/mL”, the “bacterial growth OD600” value was determined as 0.973.

On to `OCCC1CN(Cc2ccc(O)cc2)CCN1CC1CCCCC1` (stereo unspecified), for which, under “polymyxin B 1 µg/mL”, the “bacterial growth OD600” value is 0.988. Regarding `COCCCC1CCN(Cc2c(C(=O)N3C[C@@H](C)O[C@@H](C)C3)nc3sccn23)CC1`, the “bacterial growth OD600” value (polymyxin B 1 µg/mL) was 0.902. Turning to `C1CCC(CNc2nc3nonc3nc2N2CCOCC2)(N2CCOCC2)C1`, the “bacterial growth OD600” value (polymyxin B 0.75 µg/mL) is 0.848. Regarding `O=C(NC1CC(=O)N(Cc2ccccc2Cl)C1)c1ccsc1` (stereo unspecified), the “bacterial growth OD600” value (polymyxin B 1 µg/mL) stood at 0.85. As to `CCn1nc(C)c(CN2CCC(C(Cc3ccc(F)cc3F)N(C)C(=O)c3ccco3)CC2)c1C` (stereo unspecified), the “bacterial growth OD600” value (polymyxin B 0.75 µg/mL) amounted to 0.96. With `COc1ccc2c(c1)OC(C)CN(C(=O)c1ccc(C(F)(F)F)cc1)C2` (stereo unspecified), the “bacterial growth OD600” value (polymyxin B 0.75 µg/mL) is 0.73.

Consider `O=C(c1ccc(C(F)(F)F)cc1)N1CCCC(CO)(Cc2ccccc2F)C1` (stereo unspecified), for which the “bacterial growth OD600” value (polymyxin B 1 µg/mL) was found to be 0.593. Same read-out and setting: to `CS(=O)(=O)N1CCC(Oc2cccc(C(=O)NCCCc3ccccc3)c2)CC1` belongs 0.924. With `COc1ccc(F)c(CC2(CCC(=O)NCc3cccc(OC(F)(F)F)c3)CCC(=O)N2)c1` (stereo unspecified), the “bacterial growth OD600” value (polymyxin B 0.75 µg/mL) was 0.732.

Turning to `Cc1ccn(CC(=O)N2CCC(C3(Cc4cccc(F)c4)NC(=O)N(CC(C)C)C3=O)CC2)n1` (stereo unspecified), the “bacterial growth OD600” value (polymyxin B 0.75 µg/mL) stood at 0.9. Take `CN(CCc1cn[nH]c1)C(=O)C1(N2CCCCC2)Cc2ccccc2C1`: the “bacterial growth OD600” value (polymyxin B 0.75 µg/mL) came out at 0.007. Turning to `OCC1(Cc2cccc(C(F)(F)F)c2)CCN(Cc2ccc3ncccc3c2)CC1`, where the note is “polymyxin B 0.75 µg/mL”, the “bacterial growth OD600” value turned out to be 0.53.

In the case of `O=C(CCC1(Cc2ccc(F)cc2)CCC(=O)N1)NC(c1ccccc1)c1ccc(Cl)cc1` (stereo unspecified), the “bacterial growth OD600” value (polymyxin B 0.75 µg/mL) amounted to 0. Take `O=C(NCC1CCCO1)c1ccc2oc(-c3ccc(C(F)(F)F)cc3)nc2c1` (stereo unspecified): the “bacterial growth OD600” value (polymyxin B 0.75 µg/mL) amounted to 0.212. Take `COc1ccccc1OCC(=O)NCC1CCCN(C/C=C/c2ccc(F)cc2)C1` (stereo unspecified): the “bacterial growth OD600” value (polymyxin B 1 µg/mL) was found to be 1.03. Turning to `CCOC(=O)N1CCN(C(=O)c2ccc(N3CCC(NCCc4c(C)n[nH]c4C)CC3)cc2)CC1`, the “bacterial growth OD600” value (polymyxin B 0.75 µg/mL) amounted to 0.849. As for `NC(=O)[C@H](Cc1ccccc1)NC1CCN(c2cccc(NS(=O)(=O)c3ccc(F)cc3)c2)CC1`, the “bacterial growth OD600” value (polymyxin B 0.75 µg/mL) was 0.748.

On to `CC(CCCC(C)(C)O)Nc1nncc(-c2ccccc2F)n1` (stereo unspecified), for which the “bacterial growth OD600” value (polymyxin B 1 µg/mL) stood at 1.03. For `Cn1ccnc1CNC(=O)CC(c1ccccc1)c1ccccc1Cl` (stereo unspecified), under “polymyxin B 1 µg/mL”, the “bacterial growth OD600” value turned out to be 0.846. For `CN(Cc1ccon1)Cc1cn(-c2ccc(F)cc2)nc1-c1ccccc1Cl`, under “polymyxin B 1 µg/mL”, the “bacterial growth OD600” value was found to be 0.155. For `Cc1cc(C)n(Cc2cc(C(=O)N3CCCC3c3ccccn3)n[nH]2)n1` (stereo unspecified), the “bacterial growth OD600” value (polymyxin B 1 µg/mL) was 0.877. As for `Cc1ncc(CN2CCCC(CNC(=O)c3cccc(C(F)(F)F)c3)C2)s1` (stereo unspecified), the “bacterial growth OD600” value (polymyxin B 1 µg/mL) is 1.02. For the compound `Cc1ccc2oc(C(=O)N3CCN(CC(=O)NC(C)C)CC3)c(C)c2c1`, where the note is “polymyxin B 1 µg/mL”, the “bacterial growth OD600” value was found to be 1.11. As for `COC(=O)C1CCCCN1C(=O)c1c(OC)cc(=O)n2c1CCN(Cc1cccc(OC)c1)CC2` (stereo unspecified), for the setting “polymyxin B 0.75 µg/mL”, the “bacterial growth OD600” value was found to be 0.847. For `O=C(Cc1cscn1)N1CCC(C2(c3ccccn3)NC(=O)N(CCc3cccs3)C2=O)CC1` (stereo unspecified), the “bacterial growth OD600” value (polymyxin B 0.75 µg/mL) stood at 0.778.

These data come from the supplement of paper PMC12889115.
